# Data published in PubChem BioAssay AID1159614 (National Center for Advancing Translational Sciences (NCATS), 2016).
# By UniProt entry, the sequences of proteins in these tests, tags left out. Where a name states a change or a piece, a line headed by the entry shows the natural chain unless it says otherwise.
# UniProt P54803: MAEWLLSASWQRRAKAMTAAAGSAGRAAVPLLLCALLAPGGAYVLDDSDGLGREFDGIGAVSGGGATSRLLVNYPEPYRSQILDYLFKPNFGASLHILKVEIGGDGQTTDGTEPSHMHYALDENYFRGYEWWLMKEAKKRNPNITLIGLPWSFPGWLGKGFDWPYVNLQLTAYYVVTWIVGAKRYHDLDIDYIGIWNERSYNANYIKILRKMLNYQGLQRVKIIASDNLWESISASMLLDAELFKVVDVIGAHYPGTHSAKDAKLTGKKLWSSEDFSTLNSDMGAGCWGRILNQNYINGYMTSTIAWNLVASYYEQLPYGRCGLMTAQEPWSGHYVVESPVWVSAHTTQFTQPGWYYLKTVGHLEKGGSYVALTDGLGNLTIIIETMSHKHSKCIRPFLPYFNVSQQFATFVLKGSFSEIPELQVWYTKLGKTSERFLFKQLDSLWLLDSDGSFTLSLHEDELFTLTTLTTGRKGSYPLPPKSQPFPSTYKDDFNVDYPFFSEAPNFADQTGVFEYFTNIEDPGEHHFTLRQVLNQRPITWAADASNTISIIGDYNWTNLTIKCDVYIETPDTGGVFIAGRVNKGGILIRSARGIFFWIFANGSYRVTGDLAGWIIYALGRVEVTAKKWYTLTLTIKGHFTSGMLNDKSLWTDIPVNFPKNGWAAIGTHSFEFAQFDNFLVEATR
# What follows is the remainder of the data, with few or none of the hits. Activity calls are given as the source filed them. Calls come from the whole dose curve; as a rule, active = well fitted activation curve with a large enough effect; inconclusive = small, poorly fitted or top-dose-only effect; inactive = no such curve, though single readings can be large or run the other way.
# Target: Galactocerebrosidase (Homo sapiens) (UniProt P54803)
# Assay: A Novel Cell-Based Assay to Identify Small Molecules for B -Galactocerebrosidase; note: 0% is about no effect; nearly all actives have a fitted effect of over 65% in size
# Conditions: 145M-Twi-hGALC-G270D cells (Twitcher mouse brain line with human GALC G270D), HMU-beta-Gal fluorescence, 48 h; at 57.5 µM (top of the series)
# From the text: Lysosomal storage diseases (LSDs) are caused by genetic mutations in genes encoding proteins important for normal lysosomal function. Globoid cell leukodystrophy (GLD), mostly known as Krabbe disease, is a prototype of the neurological LSDs caused by deficiency of beta-galactocerebrosidase (GALC). In brain specimens of GLD patients, psychosine levels are substantially elevated. At elevated concentrations, psychosine becomes cytotoxic to neuronal cells, particularly to oligodendrocytes (OLG), neural cells responsible for myelin formation. Therefore, the biochemical disturbances in GLD are manifested by different degrees of brain demyelination resulting in a broad spectrum of neurological manifestations. Most of the FDA-approved therapies are based on enzyme replacement therapeutic (ERT) agents, which treat non-neurological symptoms of Gaucher disease, Fabry disease, few mucopolysaccharidoses and Pompe disease. […]
# A cell-based assay in 1,536-well plate format was developed to implement a quantitative high-throughput screening (qHTS) assay using GLD-disease relevant cells to identify small molecules that produce enhancements of the residual enzymatic activity levels of mutants GALC found and prevalent in GLD patients. […] After the treatment of live cells for a determined period, using a fluorescent GALC specific substrate, the mutant residual GALC activity is measured. […]
row,Structure (SMILES),activation
1,CC(C)(C)c1ccc(O)cc1,inactive: -10.1%
